Measured values published in US8076285B2 (Aicuris GmbH & Co. KG, priority 2006, dated 2011).

Experiment: general procedure: Fmoc solid-phase peptide synthesis; 2-chlorotrityl chloride resin (Iris Biotech), 0.85 mmol/g; TBTU/DIEA
[1] = late stage modification step, trifluoroacetate

## [(3R)-3-Amino-L-phenylalanyl]-[(3R)-3-hydroxy-L-leucyl]-L-leucyl-D-arginyl-L-isoleucyl-L-allothreonyl-glycyl-L-allothreonyl-L-serinate C^1.9-N^3.1-lactam bishydrochloride
[1]
  step yield: 86% of theory

## [(3R)-3-Amino-L-phenylalanyl]-[(3R)-3-hydroxy-L-leucyl]-L-leucyl-D-arginyl-L-isoleucyl-L-allothreonyl-glycyl-L-asparaginyl-L-serine C^1.9-N^3.1-lactam bishydrochloride
[1]
  step yield: 96% of theory

## [(3R)-3-Amino-L-phenylalanyl]-[(3R)-3-hydroxy-L-leucyl]-L-leucyl-D-arginyl-L-isoleucyl-L-allothreonyl-glycyl-L-threonyl-L-serine C^1.9-N^3.3-lactam bishydrochloride
[1]
  step yield: 99% of theory

## [(3R)-3-Amino-L-phenylalanyl]-[(3R)-3-hydroxy-L-leucyl]-L-leucyl-D-arginyl-L-isoleucyl-L-allothreonyl-glycyl-[(2S)-2-amino-3-(9H-fluoren-9-ylmethoxycarbonyl)aminobutyryl]-L-serine C^1.9-N^3.1-lactam bishydrochloride
Late stage modification step, of theory from 383A, trifluoroacetate
  step yield: 63% of theory

## [(3R)-3-Amino-L-phenylalanyl]-[(3R)-3-hydroxy-L-leucyl]-L-leucyl-D-arginyl-L-isoleucyl-L-allothreonyl-glycyl-[(3S)-3-hydroxy-L-asparaginyl]-L-alanine C^1.9-N^3.1-lactam bishydrochloride
Late stage modification step, bishydrochloride
  step yield: 97% of theory

## [(3R)-3-Amino-L-phenylalanyl]-[(3R)-3-hydroxy-L-leucyl]-L-leucyl-D-arginyl-L-isoleucyl-L-allothreonyl-glycyl-[(3S)-3-hydroxy-L-asparaginyl]-L-serine C^1.9-N^3.1-lactam bishydrochloride
[1]
  step yield: 95% of theory

## [(3R)-3-Amino-L-phenylalanyl]-[(3R)-3-hydroxy-L-leucyl]-L-leucyl-D-arginyl-L-isoleucyl-L-allothreonyl-glycyl-glycyl-L-serine C^1.9-N^3.1-lactam bistrifluoroacetate
Late stage modification step, of theory from 404A, trifluoroacetate
  step yield: 97% of theory

## [(3R)-3-Amino-L-phenylalanyl]-[(3R)-3-hydroxy-L-leucyl]-L-leucyl-D-arginyl-L-isoleucyl-L-leucyl-glycyl-L-seryl-L-serine C^1.9-N^3.1-lactam bishydrochloride
Late stage modification step, of theory from 401A, trifluoroacetate
  step yield: 97% of theory
[1]
  purity (crude or final not stated): 84% pure

## [(3R)-3-Amino-L-phenylalanyl]-[(3R)-3-hydroxy-L-leucyl]-L-leucyl-D-arginyl-L-isoleucyl-L-valyl-glycyl-L-seryl-L-serine C^1.9-N^3.1-lactam bishydrochloride
Late stage modification step, of theory from 398A, trifluoroacetate
  step yield: 83% of theory

## [(3R)-3-Amino-L-phenylalanyl]-[(3R)-3-hydroxy-L-leucyl]-L-leucyl-D-arginyl-L-leucyl-L-allothreonyl-glycyl-L-seryl-L-serine C^1.9-N^3.1-lactam bistrifluoroacetate
Late stage modification step, of theory from 389A, trifluoroacetate
  step yield: 89% of theory
[1]
  purity (crude or final not stated): 85% pure

## [(3R)-3-Amino-L-phenylalanyl]-[(3R)-3-hydroxy-L-leucyl]-L-leucyl-D-arginyl-L-phenylalanlyl-L-allothreonyl-glycyl-L-seryl-L-serine C^1.9-N^3.1-lactam bistrifluoroacetate
Late stage modification step, of theory from 392A, trifluoroacetate
  step yield: 77% of theory
[1]
  purity (crude or final not stated): 71% pure

## [(3R)-3-Amino-L-phenylalanyl]-[(3R)-3-hydroxy-L-leucyl]-L-norvalyl-D-arginyl-L-isoleucyl-L-allothreonyl-glycyl-L-seryl-L-serine C^1.9-N^3.1-lactam bistrifluoroacetate
Late stage modification step, of theory from 395A, trifluoroacetate
  step yield: 68% of theory

## [(3R)-3-Amino-L-phenylalanyl]-[(3R)-3-hydroxy-L-leucyl]-[3-tertbutyl-L-alanyl]-D-arginyl-L-isoleucyl-L-allothreonyl-glycyl-L-seryl-L-serine C^1.9-N^3.1-lactam bishydrochloride
Late stage modification step, of theory from 385A, trifluoroacetate
  step yield: 63% of theory

## [(3R)-3-Hydroxy-L-leucyl]-L-isoleucyl-D-arginyl-L isoleucyl-L-allothreonyl-glycyl-L-seryl-L-serine bistrifluoroacetate
[1]
  final purity (method not given): 45% pure

## [(3R)-3-Hydroxy-L-leucyl]-L-leucyl-(N^5-benzyloxycarbonyl-D-ornithyl)-L-isoleucyl-L-allothreonyl-glycyl-L-seryl-L-serine bistrifluoroacetate
[1]
  final purity (method not given): 28% pure

## [(3R)-3-Hydroxy-L-leucyl]-L-leucyl-(N^6-benzyloxycarbonyl-D-lysyl)-L-isoleucyl-L-allothreonyl-glycyl-L-seryl-L-serine bistrifluoroacetate
[1]
  purity (crude or final not stated): 58% pure

## [(3R)-3-Hydroxy-L-leucyl]-L-leucyl-D-arginyl-L isoleucyl-L-allothreonyl-D-seryl-L-seryl-L-serine bistrifluoroacetate
[1]
  final purity (method not given): 33% pure

## [(3R)-3-Hydroxy-L-leucyl]-L-leucyl-D-arginyl-L isoleucyl-L-allothreonyl-glycyl-[(2S)-2-amino-4-benzyloxycarbonylaminobutyryl]-L-serine bistrifluoroacetate
[1]
  final purity (method not given): 67% pure

## [(3R)-3-Hydroxy-L-leucyl]-L-leucyl-D-arginyl-L phenylalanlyl-L-allothreonyl-glycyl-L-seryl-L-serine bistrifluoroacetate
[1]
  final purity (method not given): 66% pure

## [(3R)-3-Hydroxy-L-leucyl]-L-leucyl-D-arginyl-L-isoleucyl-L-allothreonyl-glycyl-L-seryl-L-serine bistrifluoroacetate
[1]
  step yield: 99% of theory

## [(3R)-3-Hydroxy-L-leucyl]-L-leucyl-D-arginyl-L-isoleucyl-L-allothreonyl-glycyl-[(2S)-2-amino-3-(9H-fluoren-9-ylmethoxycarbonyl)aminobutyryl]-L-serine bistrifluoroacetate
Late stage modification step, from 701 mg (0.50 mmol) of 288A, trifluoroacetate
  step yield: 98% of theory

## [(3R)-3-Hydroxy-L-leucyl]-L-leucyl-D-arginyl-L-isoleucyl-L-allothreonyl-glycyl-glycyl-L-serine bistrifluoroacetate
[1]
  final purity (method not given): 60% pure

## [(3R)-3-Hydroxy-L-leucyl]-L-leucyl-D-arginyl-L-isoleucyl-L-leucyl-glycyl-L-seryl-L-serine bistrifluoroacetate
[1]
  final purity (method not given): 36% pure

## [(3R)-3-Hydroxy-L-leucyl]-L-leucyl-D-arginyl-L-isoleucyl-L-seryl-glycyl-[(3S)-3-hydroxy-L-asparaginyl]-L-serinate bistrifluoroacetate
[1]
  step yield: 90% of theory

## [(3R)-3-Hydroxy-L-leucyl]-L-leucyl-D-arginyl-L-isoleucyl-L-threonyl-glycyl-L-asparaginyl-L-serine bistrifluoroacetate
Late stage modification step, bistrifluoroacetate
  step yield: 99.5% of theory

## [(3R)-3-Hydroxy-L-leucyl]-L-leucyl-D-arginyl-L-isoleucyl-L-valyl-glycyl-L-seryl-L-serine bistrifluoroacetate
[1]
  final purity (method not given): 72% pure

## [(3R)-3-Hydroxy-L-leucyl]-L-leucyl-D-arginyl-L-leucyl-L-allothreonyl-glycyl-L-seryl-L-serine bistrifluoroacetate
[1]
  purity (crude or final not stated): 40% pure

## [(3R)-3-Hydroxy-L-leucyl]-L-leucyl-D-arginyl-[3-trimethylsilyl-L-alanlyl]-L-allothreonyl-glycyl-L-seryl-L-serine bistrifluoroacetate
[1]
  final purity (method not given): 64% pure

## [(3R)-3-Hydroxy-L-leucyl]-L-leucyl-[(2R)-2-amino-4-benzyloxycarbonylaminobutyryl]-L-isoleucyl-L-allothreonyl-glycyl-L-seryl-L-serine bistrifluoroacetate
[1]
  final purity (method not given): 64% pure

## [(3R)-3-Hydroxy-L-leucyl]-L-leucyl-[N^5-(benzyloxycarbonyl)-D-ornithyl]-L-isoleucyl-L-allothreonyl-glycyl-L-asparaginyl-L-serine Trifluoroacetate
[1]
  step yield: 79.3% of theory

## [(3R)-3-Hydroxy-L-leucyl]-L-leucyl-{N^5-[benzyloxycarbonyl]-N^5-[{[benzyloxycarbonyl]-amino}(imino)methyl]-D-ornithyl}-L-isoleucyl-L-allothreonyl-glycyl-L-asparaginyl-L-serine
[1]
  step yield: 27.9% of theory

## [(3R)-3-Hydroxy-L-leucyl]-L-norleucyl-D-arginyl-L-isoleucyl-L-allothreonyl-glycyl-L-alanyl-L-serine bistrifluoroacetate
[1]
  final purity (method not given): 60% pure

## [(3R)-3-Hydroxy-L-leucyl]-L-norvalyl-D-arginyl-L isoleucyl-L-allothreonyl-glycyl-L-seryl-L-serine bistrifluoroacetate
[1]
  final purity (method not given): 35% pure

## [(3R)-3-Hydroxy-L-leucyl]-L-norvalyl-D-arginyl-L-isoleucyl-L-allothreonyl-glycyl-L-alanyl-L-serine bistrifluoroacetate
[1]
  final purity (method not given): 41% pure

## [(3R)-3-Hydroxy-L-leucyl]-L-valyl-D-arginyl-L isoleucyl-L-allothreonyl-glycyl-L-seryl-L-serine bistrifluoroacetate
[1]
  final purity (method not given): 50% pure

## [(3R)-N^2-(Benzyloxycarbonyl)-3-amino-3-(pyridin-3-yl)-L-alanyl]-[(3R)-3-hydroxy-L-leucyl]-L-leucyl-D-arginyl-L-isoleucyl-L-allothreonyl-glycyl-[(3R)-3-hydroxy-L-asparaginyl]-L-serine C^1.9-N^3.1-lactam bis-trifluoroacetate
Cyclisation step, trifluoroacetate
  cyclisation yield: 61% of theory

## [(3R)-N^2-(Benzyloxycarbonyl)-3-amino-L-leucyl]-[(3R)-3-hydroxy-L-leucyl]-L-leucyl-D-arginyl-L-isoleucyl-L-allothreonyl-glycyl-[(3R)-3-hydroxy-L-asparaginyl]-L-serine bistrifluoroacetate
[1]
  crude purity (method not given): 96% pure
